Values from PubChem BioAssay AID1224830 (NIAID, 2016)

Aim: 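Regulators of TLR4 signalling towards TNF-alpha in macrophage-like cells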 (primary screen)
System: human THP-1 monocytic leukaemia cells, TNF dual-luciferase reporter clone, PMA-differentiated to macrophage-like cells
Knock-down reagent: siRNA pool against human genes, 50 nM
Time to read-out: LPS for 4 h, given about 3 days after siRNA transfection
Conditions: bacterial LPS (TLR4 ligand), 10 ng/ml
Measurement: 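TNF firefly reporter luminescence divided by renilla, normalised to the plate median, then turned into a robust z-score for each replicate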
Reading the numbers: TNF reporter robust z-score: higher = stronger TNF reporter response to LPS
Hit rule: 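Each well counts as active if its z-score is over 2.8 or under -1.5; controls are left without a call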
The whole screen tested about 18,000 reagents; below is an unselected part. In the full data, about 2,900 (16%) are marked active. 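Calls are made per well; low scores hint the gene aids the LPS response, high scores that it dampens it.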 Repeated entries: four replicate wells of each siRNA pool.

gene	TNF reporter robust z-score	Call
MRGPRG (GeneID 386746)	-0.79	inactive
MRGPRG (GeneID 386746)	-0.81	inactive
MRGPRG (GeneID 386746)	-0.77	inactive
MRGPRG (GeneID 386746)	-0.88	inactive
AKR1D1 (GeneID 6718)	1.9	inactive
AKR1D1 (GeneID 6718)	1.63	inactive
AKR1D1 (GeneID 6718)	2.22	inactive
AKR1D1 (GeneID 6718)	1.61	inactive
MAGEH1 (GeneID 28986)	0.64	inactive
MAGEH1 (GeneID 28986)	2.65	inactive
MAGEH1 (GeneID 28986)	2.43	inactive
MAGEH1 (GeneID 28986)	2.75	inactive
BFSP1 (GeneID 631)	2.21	inactive
BFSP1 (GeneID 631)	3.2	active
BFSP1 (GeneID 631)	0.72	inactive
BFSP1 (GeneID 631)	1.1	inactive
FMN2 (GeneID 56776)	0.43	inactive
FMN2 (GeneID 56776)	0.78	inactive
FMN2 (GeneID 56776)	-1.46	inactive
FMN2 (GeneID 56776)	-1.02	inactive
CEACAM6 (GeneID 4680)	-0.92	inactive
CEACAM6 (GeneID 4680)	-0.62	inactive
CEACAM6 (GeneID 4680)	-0.83	inactive
CEACAM6 (GeneID 4680)	-0.95	inactive
TMEM33 (GeneID 55161)	-0.1	inactive
TMEM33 (GeneID 55161)	0.3	inactive
TMEM33 (GeneID 55161)	-1.08	inactive
TMEM33 (GeneID 55161)	1.29	inactive
IP6K1 (GeneID 9807)	-1.35	inactive
IP6K1 (GeneID 9807)	0.17	inactive
IP6K1 (GeneID 9807)	0.46	inactive
IP6K1 (GeneID 9807)	-0.25	inactive
ZFP69B (GeneID 65243)	-1.14	inactive
ZFP69B (GeneID 65243)	-0.82	inactive
ZFP69B (GeneID 65243)	-1.02	inactive
ZFP69B (GeneID 65243)	-1.07	inactive
RTL3 (GeneID 203430)	-0.18	inactive
RTL3 (GeneID 203430)	0	inactive
RTL3 (GeneID 203430)	0.45	inactive
RTL3 (GeneID 203430)	1.35	inactive
RELL2 (GeneID 285613)	-0.79	inactive
RELL2 (GeneID 285613)	-0.42	inactive
RELL2 (GeneID 285613)	-0.28	inactive
RELL2 (GeneID 285613)	-0.25	inactive
FBXO17 (GeneID 115290)	1.3	inactive
FBXO17 (GeneID 115290)	-0.47	inactive
FBXO17 (GeneID 115290)	0.09	inactive
FBXO17 (GeneID 115290)	2.87	active
ITM2C (GeneID 81618)	-0.45	inactive
ITM2C (GeneID 81618)	1.02	inactive
ITM2C (GeneID 81618)	1.24	inactive
ITM2C (GeneID 81618)	1.38	inactive
GBP3 (GeneID 2635)	-0.71	inactive
GBP3 (GeneID 2635)	-0.61	inactive
GBP3 (GeneID 2635)	-0.35	inactive
GBP3 (GeneID 2635)	-0.95	inactive
GK (GeneID 2710)	1.09	inactive
GK (GeneID 2710)	1.13	inactive
GK (GeneID 2710)	1.36	inactive
GK (GeneID 2710)	1.51	inactive
SSTR3 (GeneID 6753)	-0.55	inactive
SSTR3 (GeneID 6753)	0.4	inactive
SSTR3 (GeneID 6753)	0.03	inactive
SSTR3 (GeneID 6753)	0.36	inactive
BRCC3 (GeneID 79184)	-0.65	inactive
BRCC3 (GeneID 79184)	0.57	inactive
BRCC3 (GeneID 79184)	0.1	inactive
BRCC3 (GeneID 79184)	-0.38	inactive
MTPN (GeneID 136319)	0.57	inactive
MTPN (GeneID 136319)	1.29	inactive
MTPN (GeneID 136319)	0.83	inactive
MTPN (GeneID 136319)	0.61	inactive
HGH1 (GeneID 51236)	0.88	inactive
HGH1 (GeneID 51236)	1.29	inactive
HGH1 (GeneID 51236)	0.16	inactive
HGH1 (GeneID 51236)	1.1	inactive
PALS2 (GeneID 51678)	0.54	inactive
PALS2 (GeneID 51678)	0.72	inactive
PALS2 (GeneID 51678)	0.1	inactive
PALS2 (GeneID 51678)	-0.2	inactive
TCERG1L (GeneID 256536)	-1.11	inactive
TCERG1L (GeneID 256536)	-0.81	inactive
TCERG1L (GeneID 256536)	-0.49	inactive
TCERG1L (GeneID 256536)	-0.47	inactive
GFRA2 (GeneID 2675)	0.38	inactive
GFRA2 (GeneID 2675)	1.64	inactive
GFRA2 (GeneID 2675)	-0.12	inactive
GFRA2 (GeneID 2675)	1.53	inactive
NOC2L (GeneID 26155)	-0.62	inactive
NOC2L (GeneID 26155)	0.77	inactive
NOC2L (GeneID 26155)	0.55	inactive
NOC2L (GeneID 26155)	-0.24	inactive
KRT82 (GeneID 3888)	-0.84	inactive
KRT82 (GeneID 3888)	-0.32	inactive
KRT82 (GeneID 3888)	-0.77	inactive
KRT82 (GeneID 3888)	-0.82	inactive
LRP6 (GeneID 4040)	1.42	inactive
LRP6 (GeneID 4040)	1.17	inactive
LRP6 (GeneID 4040)	1.78	inactive
LRP6 (GeneID 4040)	2.18	inactive
SPTBN2 (GeneID 6712)	-0.42	inactive
SPTBN2 (GeneID 6712)	-0.27	inactive
SPTBN2 (GeneID 6712)	-0.09	inactive
SPTBN2 (GeneID 6712)	0.3	inactive
KIR2DL5B (GeneID 553128)	-1.1	inactive
KIR2DL5B (GeneID 553128)	-0.9	inactive
KIR2DL5B (GeneID 553128)	-1.43	inactive
KIR2DL5B (GeneID 553128)	-1.47	inactive
PSG6 (GeneID 5675)	-1.67	active
PSG6 (GeneID 5675)	-0.58	inactive
PSG6 (GeneID 5675)	-1.04	inactive
PSG6 (GeneID 5675)	-1.25	inactive
